The list does not hold the whole screen: it gathers some chemical classes. Not every dose and run of a compound is shown. T/C gives the treated animals as a percentage of the vehicle group. Where survival is the endpoint, this PubChem deposit counts one and a half times the control or more as active, and values a quarter to a half above the control carry no call in these data; other NCI protocols may use other cut-offs. Schedules are NCI's codes, read here as Q, the interval in days (D) or hours (H), X, the number of doses. Some entries show no survivor count and are marked so; the dose need not have been tolerated. Some entries hold several experiments; their values stand side by side, smallest first. Signs of the kind (2×) stand for listed records that agree.
Test system: P388 leukemia ip, CD2F1 mice, survival T/C
Assay: NCI In Vivo Anticancer Drug Screen. Data for tumor model P388 Leukemia (intraperitoneal) in CD2F1 (CDF1) mice
Details: higher T/C = longer survival

For `CC(=O)OCC12CCC(C)=CC1OC1C(O)C(OC(C)=O)C2(C)C12CO2` (stereo unspecified), the T/C (T/C endpoint: mean survival time, dose: 0.03 mg/kg/injection, schedule: Q01DX010 (ip), vehicle: Klucel (hydroxypropylcellulose) (HPC)) was 98 % of control [survivor count not shown], the T/C (T/C endpoint: mean survival time, dose: 0.03 mg/kg/injection, schedule: Q01DX010 (iv), vehicle: Klucel (hydroxypropylcellulose) (HPC)) was 103 % of control [survivor count not shown] and the T/C (T/C endpoint: mean survival time, dose: 0.05 mg/kg/injection, schedule: Q01DX010 (iv), vehicle: Klucel (hydroxypropylcellulose) (HPC)) was 98 % of control [survivor count not shown]. The T/C (T/C endpoint: mean survival time, dose: 0.05 mg/kg/injection, schedule: Q01DX010 (sc), vehicle: Klucel (hydroxypropylcellulose) (HPC)) was 106 % of control [survivor count not shown], the T/C (T/C endpoint: mean survival time, dose: 0.1 mg/kg/injection, schedule: Q01DX010 (ip), vehicle: Klucel (hydroxypropylcellulose) (HPC)) was 98 % of control [survivor count not shown] and the T/C (T/C endpoint: mean survival time, dose: 0.1 mg/kg/injection, schedule: Q01DX010 (iv), vehicle: Klucel (hydroxypropylcellulose) (HPC)) was 99 % of control [survivor count not shown]. For the same compound, the T/C (T/C endpoint: mean survival time, dose: 0.1 mg/kg/injection, schedule: Q01DX010 (oral), vehicle: Klucel (hydroxypropylcellulose) (HPC)) was 100 % of control [survivor count not shown], the T/C (T/C endpoint: mean survival time, dose: 0.1 mg/kg/injection, schedule: Q01DX010 (sc), vehicle: Klucel (hydroxypropylcellulose) (HPC)) was 91 % of control [survivor count not shown] and the T/C (T/C endpoint: mean survival time, dose: 0.2 mg/kg/injection, schedule: Q01DX010 (im), vehicle: Klucel (hydroxypropylcellulose) (HPC)) was 89 % of control [survivor count not shown]. The T/C (T/C endpoint: mean survival time, dose: 0.2 mg/kg/injection, schedule: Q01DX010 (ip), vehicle: Klucel (hydroxypropylcellulose) (HPC)) was 135 % of control [survivor count not shown], the T/C (T/C endpoint: mean survival time, dose: 0.2 mg/kg/injection, schedule: Q01DX010 (iv), vehicle: Klucel (hydroxypropylcellulose) (HPC)) was 93 % of control [survivor count not shown] and the T/C (T/C endpoint: mean survival time, dose: 0.2 mg/kg/injection, schedule: Q01DX010 (oral), vehicle: Klucel (hydroxypropylcellulose) (HPC)) was 102 % of control [survivor count not shown]. For the same compound, the T/C (T/C endpoint: mean survival time, dose: 0.2 mg/kg/injection, schedule: Q01DX010 (sc), vehicle: Klucel (hydroxypropylcellulose) (HPC)) was 102 % of control [survivor count not shown], the T/C (T/C endpoint: mean survival time, dose: 0.4 mg/kg/injection, schedule: Q01DX010 (im), vehicle: Klucel (hydroxypropylcellulose) (HPC)) was 105 % of control [survivor count not shown] and the T/C (T/C endpoint: mean survival time, dose: 0.4 mg/kg/injection, schedule: Q01DX010 (ip), vehicle: Klucel (hydroxypropylcellulose) (HPC)) was 167 % of control [survivor count not shown]. For the same compound, the T/C (T/C endpoint: mean survival time, dose: 0.4 mg/kg/injection, schedule: Q01DX010 (iv), vehicle: Klucel (hydroxypropylcellulose) (HPC)) was 98 % of control [survivor count not shown], the T/C (T/C endpoint: mean survival time, dose: 0.4 mg/kg/injection, schedule: Q01DX010 (oral), vehicle: Klucel (hydroxypropylcellulose) (HPC)) was 98 % of control [survivor count not shown] and the T/C (T/C endpoint: mean survival time, dose: 0.8 mg/kg/injection, schedule: Q01DX010 (im), vehicle: Klucel (hydroxypropylcellulose) (HPC)) was 118 % of control [survivor count not shown]. For the same compound, the T/C (T/C endpoint: mean survival time, dose: 0.8 mg/kg/injection, schedule: Q01DX010 (ip), vehicle: Klucel (hydroxypropylcellulose) (HPC)) was 150 % of control [survivor count not shown], the T/C (T/C endpoint: mean survival time, dose: 0.8 mg/kg/injection, schedule: Q01DX010 (iv), vehicle: Klucel (hydroxypropylcellulose) (HPC)) was 107 % of control [survivor count not shown] and the T/C (T/C endpoint: mean survival time, dose: 0.8 mg/kg/injection, schedule: Q01DX010 (oral), vehicle: Klucel (hydroxypropylcellulose) (HPC)) was 99 % of control [survivor count not shown]. The T/C (T/C endpoint: mean survival time, dose: 0.8 mg/kg/injection, schedule: Q01DX010 (sc), vehicle: Klucel (hydroxypropylcellulose) (HPC)) was 107 % of control [survivor count not shown], the T/C (T/C endpoint: mean survival time, dose: 1.6 mg/kg/injection, schedule: Q01DX010 (im), vehicle: Klucel (hydroxypropylcellulose) (HPC)) was 132 % of control [survivor count not shown] and the T/C (T/C endpoint: mean survival time, dose: 1.6 mg/kg/injection, schedule: Q01DX010 (ip), vehicle: Klucel (hydroxypropylcellulose) (HPC)) was 164 % of control [survivor count not shown]. The T/C (T/C endpoint: mean survival time, dose: 1.6 mg/kg/injection, schedule: Q01DX010 (iv), vehicle: Klucel (hydroxypropylcellulose) (HPC)) was 133 % of control [survivor count not shown], the T/C (T/C endpoint: mean survival time, dose: 1.6 mg/kg/injection, schedule: Q01DX010 (sc), vehicle: Klucel (hydroxypropylcellulose) (HPC)) was 132 % of control [survivor count not shown] and the T/C (T/C endpoint: mean survival time, dose: 3.2 mg/kg/injection, schedule: Q01DX010 (oral), vehicle: Klucel (hydroxypropylcellulose) (HPC)) was 127 % of control [survivor count not shown]. For the same compound, the T/C (T/C endpoint: median survival time, dose: 0.06 mg/kg/injection, schedule: Q03HX008 (ip), vehicle: saline) was 118 % of control [survivor count not shown], the T/C (T/C endpoint: median survival time, dose: 0.06 mg/kg/injection, schedule: Q03HX016 (ip), vehicle: saline) was 122 % of control [survivor count not shown] and the T/C (T/C endpoint: median survival time, dose: 0.06 mg/kg/injection, schedule: Q03HX024 (ip), vehicle: saline) was 136 % of control [survivor count not shown]. The T/C (T/C endpoint: median survival time, dose: 0.13 mg/kg/injection, schedule: Q01DX009 (ip), vehicle: saline sonified) was 129 % of control [survivor count not shown], the T/C (T/C endpoint: median survival time, dose: 0.13 mg/kg/injection, schedule: Q03HX008 (ip), vehicle: saline) was 136 % of control [survivor count not shown] and the T/C (T/C endpoint: median survival time, dose: 0.13 mg/kg/injection, schedule: Q03HX024 (ip), vehicle: saline) was 150 % of control [survivor count not shown]. The T/C (T/C endpoint: median survival time, dose: 0.25 mg/kg/injection, schedule: Q01DX009 (ip), vehicle: saline sonified) was 133 % of control [survivor count not shown], the T/C (T/C endpoint: median survival time, dose: 0.25 mg/kg/injection, schedule: Q01DX009 (ip), vehicle: saline with Tween-80) was 151 % of control [survivor count not shown] and the T/C (T/C endpoint: median survival time, dose: 0.25 mg/kg/injection, schedule: Q01DX009 (ip), vehicle: saline, evaluated on day 5) was 141 [survivor count not shown] and 157 % of control [survivor count not shown]. For the same compound, the T/C (T/C endpoint: median survival time, dose: 0.25 mg/kg/injection, schedule: Q01DX009 (ip), vehicle: saline, evaluated on day 60) was 160 % of control [survivor count not shown], the T/C (T/C endpoint: median survival time, dose: 0.25 mg/kg/injection, schedule: Q03HX016 (ip), vehicle: saline) was 140 % of control [survivor count not shown] and the T/C (T/C endpoint: median survival time, dose: 0.25 mg/kg/injection, schedule: Q03HX024 (ip), vehicle: saline) was 177 % of control [survivor count not shown]. The T/C (T/C endpoint: median survival time, dose: 0.5 mg/kg/injection, schedule: Q01DX005 (ip), vehicle: saline) was 142 % of control [survivor count not shown], the T/C (T/C endpoint: median survival time, dose: 0.5 mg/kg/injection, schedule: Q01DX005 (ip), vehicle: water) was 138 [survivor count not shown] and 144 % of control [survivor count not shown] and the T/C (T/C endpoint: median survival time, dose: 0.5 mg/kg/injection, schedule: Q01DX009 (ip), vehicle: saline + alcohol, evaluated on day 30) was 144 [survivor count not shown], 161 [survivor count not shown], 169 % of control [survivor count not shown]. The T/C (T/C endpoint: median survival time, dose: 0.5 mg/kg/injection, schedule: Q01DX009 (ip), vehicle: saline + alcohol, evaluated on day 35) was 158 % of control [survivor count not shown], the T/C (T/C endpoint: median survival time, dose: 0.5 mg/kg/injection, schedule: Q01DX009 (ip), vehicle: saline with Tween-80) was 134 [survivor count not shown], 151 [survivor count not shown], 171 % of control [survivor count not shown] and the T/C (T/C endpoint: median survival time, dose: 0.5 mg/kg/injection, schedule: Q01DX009 (ip), vehicle: saline, evaluated on day 5) was 151 [survivor count not shown] and 182 % of control [survivor count not shown]. For the same compound, the T/C (T/C endpoint: median survival time, dose: 0.5 mg/kg/injection, schedule: Q01DX009 (ip), vehicle: saline, evaluated on day 30) was 100 [survivor count not shown], 135 [survivor count not shown], 145 [survivor count not shown], 147 [survivor count not shown], 153 [survivor count not shown], 158 [survivor count not shown] (2×), 171 % of control [survivor count not shown], the T/C (T/C endpoint: median survival time, dose: 0.5 mg/kg/injection, schedule: Q01DX009 (ip), vehicle: saline, evaluated on day 60) was 160 % of control [survivor count not shown] and the T/C (T/C endpoint: median survival time, dose: 0.5 mg/kg/injection, schedule: Q01DX009 (ip), vehicle: water, evaluated on day 30) was 136 [survivor count not shown], 152 [survivor count not shown], 156 [survivor count not shown], 157 % of control [survivor count not shown] (2×). For the same compound, the T/C (T/C endpoint: median survival time, dose: 0.5 mg/kg/injection, schedule: Q01DX009 (ip), vehicle: water, evaluated on day 45) was 158 % of control [survivor count not shown], the T/C (T/C endpoint: median survival time, dose: 0.5 mg/kg/injection, schedule: Q01DX009 (iv), vehicle: saline) was 136 % of control [survivor count not shown] and the T/C (T/C endpoint: median survival time, dose: 0.5 mg/kg/injection, schedule: Q01DX009 (sc), vehicle: saline) was 150 % of control [survivor count not shown]. The T/C (T/C endpoint: median survival time, dose: 0.5 mg/kg/injection, schedule: Q03HX008 (ip), vehicle: saline) was 136 % of control [survivor count not shown], the T/C (T/C endpoint: median survival time, dose: 0.5 mg/kg/injection, schedule: Q03HX016 (ip), vehicle: saline) was 165 % of control [survivor count not shown] and the T/C (T/C endpoint: median survival time, dose: 0.5 mg/kg/injection, schedule: Q03HX024 (ip), vehicle: saline) was 172 [survivor count not shown] and 186 % of control [survivor count not shown]. For the same compound, the T/C (T/C endpoint: median survival time, dose: 1.0 mg/kg/injection, schedule: Q01DX005 (ip), vehicle: saline) was 149 % of control [survivor count not shown] and the T/C (T/C endpoint: median survival time, dose: 1.0 mg/kg/injection, schedule: Q01DX005 (ip), vehicle: water) was 151 [survivor count not shown] and 152 % of control [survivor count not shown].
